In US20100285597A1, “DETECTION OF FRAGMENTS OF NECTIN-1 FOR THE DIAGNOSIS OF ALZHEIMER'S DISEASE” (UNIVERSITY OF ROCHESTER, priority 2007, published 2010):
Residue numbers refer to the chain shown, from its start. In names and notes the source's numbering stands. Results are given in words; binding and its absence hold for the method and conditions named. Binding seen in cells or lysates may run through a third protein. Some binding calls cover weakened binding; strength is not graded here. Each block holds one binder with its values, some of them ahead of it.

Sequences of proteins named here, by UniProt entry; tags and fusion partners are left off. Residues count along the entry.
UniProt P56819, residues 46-501: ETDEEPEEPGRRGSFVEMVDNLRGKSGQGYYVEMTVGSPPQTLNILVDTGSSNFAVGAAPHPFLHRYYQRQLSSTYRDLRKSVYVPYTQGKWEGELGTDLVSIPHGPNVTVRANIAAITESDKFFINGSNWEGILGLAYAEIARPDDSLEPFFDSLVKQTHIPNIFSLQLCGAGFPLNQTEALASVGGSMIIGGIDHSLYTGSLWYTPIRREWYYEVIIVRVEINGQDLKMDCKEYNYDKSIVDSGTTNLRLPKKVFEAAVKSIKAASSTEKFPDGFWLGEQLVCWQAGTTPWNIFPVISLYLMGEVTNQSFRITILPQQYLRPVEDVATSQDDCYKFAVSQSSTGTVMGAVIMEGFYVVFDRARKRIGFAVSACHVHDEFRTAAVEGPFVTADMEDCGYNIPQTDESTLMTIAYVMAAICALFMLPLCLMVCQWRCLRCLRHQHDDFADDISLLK
UniProt P56817, residues 46-501: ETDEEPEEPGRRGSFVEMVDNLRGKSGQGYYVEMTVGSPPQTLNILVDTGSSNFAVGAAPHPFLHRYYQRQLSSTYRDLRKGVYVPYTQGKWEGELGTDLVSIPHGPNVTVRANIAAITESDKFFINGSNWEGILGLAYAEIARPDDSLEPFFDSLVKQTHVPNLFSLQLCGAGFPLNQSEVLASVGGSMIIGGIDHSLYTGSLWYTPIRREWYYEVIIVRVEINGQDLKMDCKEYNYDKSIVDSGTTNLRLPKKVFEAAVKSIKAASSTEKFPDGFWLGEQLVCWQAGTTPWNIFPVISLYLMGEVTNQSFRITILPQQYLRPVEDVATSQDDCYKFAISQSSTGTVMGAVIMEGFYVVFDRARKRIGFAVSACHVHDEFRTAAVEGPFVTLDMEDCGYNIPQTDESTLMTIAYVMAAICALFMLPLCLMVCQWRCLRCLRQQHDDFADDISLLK

How the values were obtained:
[1] = target: BACE1 in rat brain (rat) (UniProt P56819); experiment: summary of the rat brain co-immunoprecipitation
[2] = target: BACE1 in rat brain (rat) (UniProt P56819); experiment: co-immunoprecipitation from rat brain detergent lysate with BACE1 specific antibody, anti-nectin-1 Western blot
[3] = target: BACE1 (UniProt P56817); experiment: summary of the co-immunoprecipitation of Example 10
[4] = target: BACE1 (UniProt P56817); experiment: co-immunoprecipitation from HEK 293 lysates with C-terminal specific nectin-1 antibody, anti-BACE1 Western blot
[5] = target: BACE1 (UniProt P56817); experiment: co-immunoprecipitation from HEK 293 lysates with nectin-1 cytoplasmic specific antibody, anti-BACE1 Western blot

B2: T310A point mutant of nectin-1 (receptor)
chain: QVVQVNDSMYGFIGTDVVLHCSFANPLPSVKITQVTWQKSTNGSKQNVAIYNPSMGVSVLAPYRERVEFLRPSFTDGTIRLSRLELEDEGVYICEFATFPTGNRESQLNLTVMAKPTNWIEGTQAVLRAKKGQDDKVLVATCTSANGKPPSVVSWETRLKGEAEYQEIRNPNGTVTVISRYRLVPSREAHQQSLACIVNYHMDRFKESLTLNVQYEPEVTIEGFDGNWYLQRMDVKLTCKADANPPATEYHWTTLNGSLPKGVEAQNRTLFFKGPINYSLAGAYICEATNPIGTRSGQVEVNITEFPYTPSPPEHGRRAGPVPTAIIGGVAGSILLVLIVVGGIVVALRRRRHTFKGDYSTKKHVYGNGYSKAGIPQHHPPMAQNLQYPDDSDDEKKAGPLGGSSYEEEEEEEEGGGGGERKVGGPHPKYDEDAKRPYFTVDEAEARQDGYGDRTLGYQYDPEQLDLAENMVSQNDGSFISKKEWYV
binding [3]: binds
binding [4]: binds

B3: Y311A point mutant of nectin-1 (receptor)
chain: B2 chain with A283T, Y284A
binding [3]: binds
binding [4]: binds

B4: S323A point mutant of nectin-1 (receptor)
chain: B2 chain with A283T, S296A
binding [3]: binds
binding [4]: binds

The remaining lines, values ahead:

binding [1]: binds
binding [2]: binds
B1: nectin-1 in rat brain (receptor)
chain: QVVQVNDSMYGFIGTDVILHCSFANPLPTVKITQVTWQKASNGSKQNMAIYNPTMGVSVLPPYEKRVEFLRPSFIDGTIRLSHLELEDEGMYICEFATFPTGNRESQLNLTVMAKPTNWIEGTQAVLRARKGQDDKVLVATCTSANGKPPSVVSWETRLKGEAEYQEIRNPNGTVTVISRYRLVPSREAHRQSLACIVNYHLDRFRESLTLNVQYEPEVTIEGFDGNWYLQRTDVKLTCKADANPPATEYHWTTLNGSLPKGVEAQNRTLFFRGPINYSLAGTYICEATNPIGTRSGQVEVNITEFPYTPTPEHGRRAGQMPTAIIGGVAGSVLLVLIVVGGIIVALRRRRHTFKGDYSTKKHVYGNGYSKAGIPQHHPPMAQNLQYPDDSDDEKKAGPLGGSSYEEEEEEEGGGGGERKVGGPHPKYDEDAKRPYFTVDEAEARQDGYGDRTLGYQYDPEQLDLAENMVSQNDGSFISKKEWYV

binding [4]: binds
binding [5]: binds
B5: wild type nectin-1 (receptor)
chain: B2 chain with A283T
